Values of other authors, collected in patent US5688992A, “O-malonyltryrosyl compounds, O-malonyltryrosyl compound-containing peptides, and use thereof” (The United States of America as represented by the …, priority 1995, dated 1997).
Structures were worked out from names or drawings and are uncertain.

Protein sequences, listed by entry. Tags and fused reporters are not part of them. Residues count along the entry.
UniProt P27986, 624-718 limits assumed: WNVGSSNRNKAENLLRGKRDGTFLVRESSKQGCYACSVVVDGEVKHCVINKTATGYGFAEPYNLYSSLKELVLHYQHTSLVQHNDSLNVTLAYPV
UniProt P62993, 60-152 limits assumed: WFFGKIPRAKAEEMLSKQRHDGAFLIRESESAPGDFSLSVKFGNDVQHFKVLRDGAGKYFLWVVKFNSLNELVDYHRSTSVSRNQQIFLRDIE
UniProt P12931, 151-248 limits assumed: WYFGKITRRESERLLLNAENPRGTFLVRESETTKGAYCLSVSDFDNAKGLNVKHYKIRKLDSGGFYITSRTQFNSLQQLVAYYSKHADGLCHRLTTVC

Columns and labels:
[1] = target: C-terminal SH2 domain of PI 3-kinase p85 (Homo sapiens, UniProt P27986); settings: read-out: IC50 ± S.E., p85 (C-terminal) SH2 domain; X = pTyr or L-F2Pmp; previously reported (Burke 1994); cited from earlier work
Grb2 SH2 domain = Grb2 SH2 domain (Homo sapiens, UniProt P62993); settings: read-out: IC50 ± S.E., Grb2 SH2 domain; X = pTyr or L-F2Pmp; previously reported (Burke 1994); cited from earlier work
Src SH2 domain = Src SH2 domain (Homo sapiens, UniProt P12931); settings: read-out: IC50 ± S.E., Src SH2 domain; X = pTyr or L-F2Pmp; previously reported (Burke 1994); cited from earlier work

For `CSCC[C@H](NC(=O)[C@@H]1CCCN1C(=O)[C@@H](NC(=O)[C@H](Cc1ccc(C(F)(F)P(=O)(O)O)cc1)NC(=O)[C@H](CC(=O)O)NC(C)=O)C(C)C)C(=O)N[C@@H](CC(C)C)C(N)=O`, which IC50 [1] is on record?
Its IC50 is 170 nM.

For `CC[C@H](C)[C@H](NC(=O)[C@H](CC(N)=O)NC(=O)[C@@H](NC(=O)[C@H](Cc1ccc(OP(=O)(O)O)cc1)NC(=O)[C@H](CC(N)=O)NC(C)=O)C(C)C)C(=O)N[C@@H](CCC(=O)O)C(N)=O`, which IC50 (Grb2 SH2 domain) is on record?
The IC50 was 900 nM.

For `CC[C@H](C)[C@H](NC(=O)[C@H](CCC(=O)O)NC(=O)[C@H](CCC(=O)O)NC(=O)[C@H](Cc1ccc(C(F)(F)P(=O)(O)O)cc1)NC(=O)[C@H](CCC(N)=O)NC(C)=O)C(=O)N1CCC[C@H]1C(N)=O`, which IC50 (Src SH2 domain) is on record?
The IC50 was 1000 nM.
